Laboratory results: patent US12195506B2, “Immunotherapy with A*01 restricted peptides and combination of peptides against cancers and related methods” (Immatics Biotechnologies GmbH, priority 2018, dated 2025)

Test system: HLA molecules of primary tumors and normal tissue samples
Test: Identification and relative quantitation of HLA ligands by LC-MS (peptide presentation on tumor versus normal tissue)
Parameters: species or system human
Conditions: cancer entities on which the peptide was found presented (HLA ligands, LC-MS); abbreviations as in title of Table 8

Substance | Peptide Presentation on cancer entities
333 (LSDPQAELQFY; listed as Homo sapiens) [compound 333] | GBM
334 (PSSMPECLSY; listed as Homo sapiens) [compound 334] | NSCLCsquam
335 (PSSMPECLSYY; listed as Homo sapiens) [compound 335] | NSCLCadeno
337 (FTESNQYNIY; listed as Homo sapiens) [compound 337] | BRCA, MEL, NSCLCadeno, NSCLCsquam
338 (YSPDSFNVSW; listed as Homo sapiens) [compound 338] | OSCAR
339 (ESMDIFPLGW; listed as Homo sapiens) [compound 339] | HNSCC, OC, OSCAR
340 (SVDSNLVAY; listed as Homo sapiens) [compound 340] | NSCLCadeno
341 (PANYLGKMTY; listed as Homo sapiens) [compound 341] | MEL, NSCLCadeno, OC, PRCA
343 (YFGNYFTYY; listed as Homo sapiens) [compound 343] | BRCA
344 (AVNALQSVY; listed as Homo sapiens) [compound 344] | AML, GBC, GBM, GC, NSCLCadeno, NSCLCother, NSCLCsquam, OC, PACA, PRCA, UEC
346 (VAGLEAGVLY; listed as Homo sapiens) [compound 346] | BRCA, GBM, HCC, MEL, OC, UBC, UEC
347 (SADHPGLTF; listed as Homo sapiens) [compound 347] | CRC
350 (LTDPQVSYV; listed as Homo sapiens) [compound 350] | MEL
351 (VLDPMLDFY; listed as Homo sapiens) [compound 351] | HCC
352 (YPVVVAESMY; listed as Homo sapiens) [compound 352] | MEL
355 (MADRGEARL; listed as Homo sapiens) [compound 355] | AML

Substance | Peptide Presentation on cancer entities
356 (NSENHILKY; listed as Homo sapiens) [compound 356] | GC, OSCAR
358 (YMSPDIALLY; listed as Homo sapiens) [compound 358] | GBM, HCC, NSCLCadeno
360 (RFDDINQEF; listed as Homo sapiens) [compound 360] | HNSCC
363 (LTDRDVSFY; listed as Homo sapiens) [compound 363] | HCC
364 (DTGYLQLYY; listed as Homo sapiens) [compound 364] | BRCA
365 (FVDTKVPEH; listed as Homo sapiens) [compound 365] | HCC, NHL, NSCLCsquam
366 (ITVDVRDEF; listed as Homo sapiens) [compound 366] | GBM
367 (LTDTGYLQLY; listed as Homo sapiens) [compound 367] | GBM, HNSCC, OC, OSCAR, UBC
369 (AVMEAAFVY; listed as Homo sapiens) [compound 369] | BRCA
370 (RLSTIRHLY; listed as Homo sapiens) [compound 370] | HNSCC, MEL
371 (WSDSTSQTIY; listed as Homo sapiens) [compound 371] | OSCAR
372 (SRSDFEWVY; listed as Homo sapiens) [compound 372] | BRCA, OSCAR
373 (FHADSDDESF; listed as Homo sapiens) [compound 373] | NHL
375 (ASSLDSLHY; listed as Homo sapiens) [compound 375] | BRCA
376 (EDDEDEDLY; listed as Homo sapiens) [compound 376] | NSCLCsquam
